Measurements published in US6716834B2, “Thiochromane derivatives and their use as thrombin inhibitors” (AstraZeneca AB, priority 2000, dated 2004).
Some entries share one result that the patent states for a list of compounds. At least one structure is not confirmed: it was looked up by name or label, or the drawing left a doubt.

Target: T1, Human thrombin (Homo sapiens, UniProt P00734)
T1 construct: purchased Sigma Chem. Co or Hematologic Technologies T 6769
Test: Test A: Determination of Thrombin Clotting Time (TT)
Assay type: biochemical
Details: concentration of inhibitor that doubles the thrombin clotting time in plasma
Procedure: Determination of Thrombin Clotting Time (TT)
The inhibitor solution (25 ? L) is incubated with plasma (25 ? L) for three minutes. Human thrombin (T 6769; Sigma Chem. Co or Hematologic Technologies) in buffer solution, pH 7.4 (25 ? L, 4.0 NIH units/mL), is then added and the clotting time measured in an automatic device (KC 10; Amelung).
The thrombin clotting time (TT) is expressed as absolute values (seconds) as well as the ratio of TT without inhibitor (TT0) to TT with inhibitor (TTi). The latter ratios (range 1-0) are plotted against the concentration of inhibitor (log transformed) and fitted to sigmoidal dose-response curves according to the equation
where: a=maximum range, i.e. 1; s=slope of the dose-response curve; and IC50=the concentration of inhibitor that doubles the clotting time. The calculations are processed on a PC using the software program GraFit Version 3, setting equation equal to: Start at 0, define end=1 (Erithacus Software, Robin Leatherbarrow, Imperial College of Science, London, UK).

N=C(N)c1ccc(CNC(=O)[C@@H]2CCN2C(=O)[C@@]2(O)CCS(=O)(=O)c3c(Cl)cc(Cl)cc32)cc1 [Example 2, (R)-6,8-Dichloro-4-hydroxy-1,1-dioxothiochromane-4-yl-C(O)-Aze-Pab]
IC50: < 50 nM
